Experimental data: PubChem BioAssay AID1259405 (NCATS, 2018)

Test: 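Mouse-designed siRNAs used to find CHO productivity engineering targets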 (primary screen)
System: Chinese hamster CHO-K1 ovary cells with stable secreted eGFP expression
Knock-down reagent: single siRNA against mouse genes, 0.8 pmol siRNA per well (2 µl of 400 nM stock)
Time to read-out: 3 days
Detection: 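Percent of the per-plate non-targeting control median for intracellular GFP per well by laser scanning cytometry and for cell viability by ATP luminescence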
Reading the numbers: GFP, % of control: higher = more GFP per well, higher productivity; viability (ATP), % of control: higher = more viable cells (more ATP)
Active means: 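Called active when intracellular GFP, relative to negative control, is at or above 120%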
The whole screen tested about 50,000 reagents; below is an unselected part. In the full data, about 4,000 (8%) were called active. 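Mouse siRNA library applied to hamster cells; one well for each siRNA.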 The numbers tell different reagents against one gene apart. Reagent sequences are not shown.

Gene | reagent | GFP, % of control | viability (ATP), % of control | activity call
Fem1b | 1 | 47.9 | 83.4 | inactive
Fem1b | 2 | 104 | 97.8 | inactive
Fem1b | 3 | 91 | 72.5 | inactive
Peg10 | 1 | 50.1 | 41.6 | inactive
Peg10 | 2 | 83.1 | 79 | inactive
Peg10 | 3 | 80.2 | 76.9 | inactive
Ippk | 1 | 97.8 | 98.9 | inactive
Ippk | 2 | 110 | 81.7 | inactive
Tlk1 | 1 | 70.1 | 68.8 | inactive
Tlk1 | 2 | 119 | 72.3 | inactive
Tlk1 | 3 | 56.2 | 60.1 | inactive
Zfp239 | 1 | 66.7 | 96.5 | inactive
Zfp239 | 2 | 80.8 | 98.5 | inactive
Zfp239 | 3 | 83.6 | 98.9 | inactive
Vmn1r215 | 1 | 60.6 | 74.6 | inactive
Vmn1r215 | 2 | 70.9 | 81.9 | inactive
Vmn1r215 | 3 | 45.6 | 84.3 | inactive
Phf24 | 1 | 73.5 | 77 | inactive
Phf24 | 2 | 68.7 | 84.6 | inactive
Phf24 | 3 | 89.9 | 47.7 | inactive
Wif1 | 1 | 78.1 | 83.5 | inactive
Wif1 | 2 | 103 | 84.1 | inactive
Wif1 | 3 | 89.7 | 110 | inactive
Ncln | 1 | 131 | 83.4 | active
Ncln | 2 | 140 | 24.3 | active
Ncln | 3 | 71.7 | 78.2 | inactive
Mmp13 | 1 | 55.6 | 78 | inactive
Mmp13 | 2 | 64.4 | 84.1 | inactive
Pnma8a | 1 | 106 | 68.3 | inactive
Pnma8a | 2 | 76 | 77.3 | inactive
Pnma8a | 3 | 94.4 | 109 | inactive

Continued (3 carried over from the part before).
Gene | reagent | GFP, % of control | viability (ATP), % of control | activity call
Pnma8a | 1 | 106 | 68.3 | inactive
Pnma8a | 2 | 76 | 77.3 | inactive
Pnma8a | 3 | 94.4 | 109 | inactive
Rab1a | 1 | 125 | 127 | active
Rab1a | 2 | 107 | 105 | inactive
Rab1a | 3 | 71.2 | 85.9 | inactive
Furin | 1 | 99.9 | 58.3 | inactive
Furin | 2 | 102 | 69.4 | inactive
Furin | 3 | 82.1 | 79.8 | inactive
Ids | 1 | 130 | 88.4 | active
Ids | 2 | 117 | 113 | inactive
Ids | 3 | 58.5 | 69 | inactive
Pwwp3b | 1 | 25.5 | 31.1 | inactive
Pwwp3b | 2 | 25.4 | 25.4 | inactive
Pwwp3b | 3 | 69.4 | 80.5 | inactive
Mgat1 | 1 | 60.5 | 64 | inactive
Mgat1 | 2 | 130 | 110 | active
Mgat1 | 3 | 100 | 109 | inactive
Msc | 1 | 44.4 | 52.9 | inactive
Msc | 2 | 170 | 130 | active
Msc | 3 | 81 | 106 | inactive
Msc | 4 | 104 | 77.9 | inactive
Msc | 5 | 107 | 88.3 | inactive
Msc | 6 | 79.8 | 85 | inactive
Slc35g3 | 1 | 44.3 | 34.9 | inactive
Slc35g3 | 2 | 72.4 | 80.6 | inactive
Slc35g3 | 3 | 115 | 127 | inactive
Lactb2 | 1 | 84.9 | 48.7 | inactive
Lactb2 | 2 | 94.3 | 96.7 | inactive
Lactb2 | 3 | 68.1 | 48.7 | inactive
